According to patent US20240092914A1 (NEW PARADIGM BIOSCIENCES USA, published 2024):
These are yes or no findings as the source states them, for the method shown. Some entries that bind do so weakly or less than the wild type.

By UniProt entry, the sequences of proteins in these tests, tags left out. Residues count along the entry.
UniProt Q8WTT0, residues 45-213: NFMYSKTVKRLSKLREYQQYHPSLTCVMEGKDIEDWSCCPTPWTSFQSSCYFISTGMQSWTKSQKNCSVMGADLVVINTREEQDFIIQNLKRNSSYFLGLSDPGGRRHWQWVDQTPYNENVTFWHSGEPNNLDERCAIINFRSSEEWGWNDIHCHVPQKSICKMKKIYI

What was measured:
[1] = target: BDCA-2 antigen (Biorbyt CLEC4C orb358925) (human) (UniProt Q8WTT0); assay: ELISA, plate coated with BDCA-2 antigen, detection with HRP anti-human IgG Fc, A450 corrected by A590
[2] = target: BDCA-2 antigen (Biorbyt CLEC4C orb358925) (human) (UniProt Q8WTT0); assay: ELISA, absorbance 450 - 590 nm; the coated antigen is not named for this figure and is taken from the in-house NPB-303 binding ELISA of paragraph 305

- binding [1]: binds
- binding [2]: binds
B1: NPB-303 humanized anti-BDCA2 monoclonal antibody (huIgG1) (antibody, V domains shown)
VH: EVQLVESGGGLVKPGGSLRLSCAASGFTFSTMSWVRQAPGKRLEWVASISSGGSTYYPDSVKGRFTISRDNAKNSLYLQMNSLRAEDTAVYYCARPSYDGYSSWFAYWGQGTLVTVSS
VL: EIVLTQSPATLSLSPGERATLSCKASQSVDYDGDGFMNWYQQKPGQAPRLLIYTASNLESGVPARFSGSGSGTDFTLTISSLEPEDFAVYYCQQSNEDPWTFGGGTKVEIKR
notes: Humanized from mouse mAb 12b, human IgG1/kappa
